# Reference: US11974990B2, “TXNIP-TRX complex inhibitors and methods of using the same” (City of Hope, priority 2018, dated 2024)
# System: THP1 cells
# Assay: Differential gene expression analysis by RNA-seq in high glucose treated THP1 cells
# Assay type: cell-based, human
# Details: THP1, HG 25 mM 72 hr with vs without C1 5 uM; fold change >1.5, p<0.05
# Protocol: FIG. 17. Hierarchical Clustering using differential expressed genes. Differential expression was calculated using these counts with edgeR (5, 6) version 3.0. After correcting for differences in library sizes, a fold change of >1.5 and a p-value of <0.05 were applied to select expressed genes. The corrected measures of the latter were further processed using Cluster3.0 (7) to generate a heatmap using Java TreeView. C=HG treated THP-1 cells (A, B are replicates); T=HG+C1 5 uM (C, D are replicates). […]
# RNA-seq: Sequence alignment and gene counts. RNA-Seq reads were trimmed to remove sequencing adapters using Trimmomatic (Bolger et al., 2014), and polyA tails using FASTP (Chen et al., 2018). The processed reads were mapped to the human genome (hg19) using STAR software (v. 020201) (Dobin et al., 2013). […]
# Differential gene expression analyses by RNA-seq. […] Differential expression analysis was conducted by adjusting read counts to normalized expression values using the TMM normalization method in edgeR package (Robinson et al., 2010). […] Next, Raw counts for each gene in the GENCODE coding gene annotation (hg19) were measured using HTseq (Anders and Huber, 2010) with an argument of “-r pos -s reserve”. Differential expression was calculated using these counts with edgeR (5, 6) version 3.0. […]
compound,measurement,value
"CC(C)C(C(=O)O)N1C(=O)c2ccncc2C1=O (centres unmarked) [Compound C1, 2-(1,3-dioxo-1,3-dihydro-2H-pyrrolo[3,4-c]pyridin-2-yl)-3-methylbutanoic acid]",number of down-regulated genes,24
same,number of up-regulated genes,20
